Experimental data: PubChem BioAssay AID1259405 (NCATS, 2018)

Purpose: 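Silenced genes that increase secreted GFP made by CHO cells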 (primary screen)
System: Chinese hamster CHO-K1 ovary cells with stable secreted eGFP expression
Knock-down reagent: single siRNA against mouse genes, 0.8 pmol siRNA per well (2 µl of 400 nM stock)
Duration: 3 days
Detection: 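Percent of the per-plate non-targeting control median for intracellular GFP per well by laser scanning cytometry and for cell viability by ATP luminescence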
Reading the numbers: GFP, % of control: higher = more GFP per well, higher productivity; viability (ATP), % of control: higher = more viable cells (more ATP)
Hit rule: 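a knock-down is called active if GFP reaches 120% or more of non-targeting control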
The deposit covers about 50,000 reagents; this is a random part of them. About 4,000 of all reagents (8%) count as active. 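Mouse siRNA library applied to hamster cells; one well for each siRNA.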 Unmarked entries are inactive. Reagents against one gene are numbered here.

| gene knocked down | reagent no. | GFP, % of control | viability (ATP), % of control |
| --- | --- | --- | --- |
| Or9g20 | 1 | 129 (active) | 67.5 |
| Or9g20 | 2 | 70.8 | 68.8 |
| Or9g20 | 3 | 67.7 | 75.6 |
| Foxf2 | 1 | 88 | 86.7 |
| Foxf2 | 2 | 126 (active) | 111 |
| Ctr9 | 1 | 117 | 50.4 |
| Ctr9 | 2 | 65.7 | 63.6 |
| Ctr9 | 3 | 96.8 | 98.6 |
| Slk | 1 | 45.5 | 47.8 |
| Ltk | 1 | 58.6 | 62.8 |
| Srm | 1 | 72.2 | 76.1 |
| Srm | 2 | 79.5 | 117 |
| Srm | 3 | 105 | 95.6 |
| Zfp865 | 1 | 44.8 | 27.3 |
| Zfp865 | 2 | 66.4 | 66.5 |
| Zfp865 | 3 | 70.7 | 99.9 |
| Atic | 1 | 100 | 76.3 |
| Atic | 2 | 98.2 | 98.3 |
| Atic | 3 | 67.8 | 84.2 |
| Asb3 | 1 | 68 | 68.9 |
| Asb3 | 2 | 74.4 | 69.5 |
| Asb3 | 3 | 106 | 93 |
| Or12d17 | 1 | 70.1 | 103 |
| Or12d17 | 2 | 75.6 | 98.2 |
| Or12d17 | 3 | 46.8 | 60.8 |
| Mup4 | 1 | 53 | 59.3 |
| Mup4 | 2 | 73.6 | 73.3 |
| Mup4 | 3 | 57.6 | 58.7 |
| Prcp | 1 | 152 (active) | 110 |
| Prcp | 2 | 55 | 50.9 |
| Prcp | 3 | 66.2 | 72.9 |
| Dtx1 | 1 | 89.7 | 86.5 |
| Dtx1 | 2 | 134 (active) | 115 |
| Smarcd2 | 1 | 135 (active) | 126 |
| Smarcd2 | 2 | 81.9 | 65.5 |

No new results follow: an excerpt of the list.
| gene knocked down | reagent no. | GFP, % of control | viability (ATP), % of control |
| --- | --- | --- | --- |
| Slk | 1 | 45.5 | 47.8 |
| Ltk | 1 | 58.6 | 62.8 |
| Srm | 1 | 72.2 | 76.1 |
| Srm | 2 | 79.5 | 117 |
| Srm | 3 | 105 | 95.6 |
